{"sequences": {"note": "Chains of the proteins cited; added tags and fusions are not shown.", "UniProt O54439": "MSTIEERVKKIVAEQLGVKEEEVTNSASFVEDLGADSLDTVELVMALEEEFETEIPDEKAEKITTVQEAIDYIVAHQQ"}, "source": "paper PMC6147952", "about": "“Acylated-acyl carrier protein stabilizes the Pseudomonas aeruginosa WaaP lipopolysaccharide heptose kinase” (Scientific Reports, 2018)", "key": {"[1]": {"target": "T1, His-tagged WaaP expressed in P. aeruginosa (P. aeruginosa) (UniProt Q9HUF7)", "T1 sequence": "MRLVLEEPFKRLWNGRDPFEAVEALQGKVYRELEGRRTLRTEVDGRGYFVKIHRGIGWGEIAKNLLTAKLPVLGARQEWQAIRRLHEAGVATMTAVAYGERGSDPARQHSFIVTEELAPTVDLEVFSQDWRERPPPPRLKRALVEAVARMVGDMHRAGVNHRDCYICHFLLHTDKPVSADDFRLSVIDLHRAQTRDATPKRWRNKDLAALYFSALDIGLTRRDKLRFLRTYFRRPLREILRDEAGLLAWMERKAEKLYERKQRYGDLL", "assay": "affinity purification with mass spectrometry; WaaP-His pulled down from exponentially growing P. aeruginosa CDR0031 by IMAC (His-Trap, eluted with 500 mM imidazole); intact protein LC-MS of co-eluted proteins; overexpressed WaaP-His"}, "[2]": {"target": "T1, His-tagged WaaP expressed in P. aeruginosa (P. aeruginosa)", "assay": "affinity purification with mass spectrometry; as a2, but from P. aeruginosa cells expressing WaaP-His at ~40-fold lower protein levels; AcpP confirmed by trypsin digest and MS/MS"}}, "note": "No constants are given. Whether binding was seen depends on the method and setting. Binding seen in cells or lysates may run through a third protein. These calls come from enrichment with a bait or labelling near it, and not all partners need be listed. For some assays here: No binding means not detected with the bait. Where a sequence is shown, tags or fusion partners need not be part of it.", "data": [{"substance": "Acp1 (P. aeruginosa (endogenous in CDR0031))", "values": [{"measurement": "binding", "setting": "[1]", "result": "no binding"}]}, {"substance": "Acp3 (P. aeruginosa (endogenous in CDR0031))", "values": [{"measurement": "binding", "setting": "[1]", "result": "no binding"}]}, {"substance": "myristyl-AcpP (C14:0) (from UniProt O54439 1-78)", "values": [{"measurement": "binding", "setting": "[1]", "result": "binds"}, {"measurement": "binding", "setting": "[2]", "result": "binds"}]}, {"substance": "palmitoyl (C16:0)-AcpP (from UniProt O54439 1-78)", "values": [{"measurement": "binding", "setting": "[1]", "result": "binds"}]}]}
